Experimental data reported in PMC5706701, “Development of a homogenous high-throughput assay for inositol hexakisphosphate kinase 1 activity” (PLoS ONE, 2017).

Chains of the proteins cited; added tags and fusions are not shown. Lines headed by an entry give the natural chain unless they say otherwise; changes in a name come on top.
UniProt Q92551: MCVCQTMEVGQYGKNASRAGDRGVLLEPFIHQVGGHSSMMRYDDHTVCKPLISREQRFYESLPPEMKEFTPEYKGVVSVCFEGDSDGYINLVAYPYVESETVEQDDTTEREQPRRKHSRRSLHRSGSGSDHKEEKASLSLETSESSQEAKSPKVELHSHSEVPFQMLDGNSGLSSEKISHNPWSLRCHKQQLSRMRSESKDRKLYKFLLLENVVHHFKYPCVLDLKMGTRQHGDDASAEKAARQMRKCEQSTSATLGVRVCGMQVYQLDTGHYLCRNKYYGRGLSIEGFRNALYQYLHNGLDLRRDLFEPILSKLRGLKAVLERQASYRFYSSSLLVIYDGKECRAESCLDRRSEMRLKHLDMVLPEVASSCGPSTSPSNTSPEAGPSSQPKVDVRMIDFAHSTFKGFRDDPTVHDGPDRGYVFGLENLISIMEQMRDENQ

Target: T1, Human IP6K1 (Homo sapiens, UniProt Q92551)
T1 construct: GST (N, cleaved yes); made in house; host or cells: C43 E. coli, pGEX-6P-2
Assay: IP6K1 high-throughput screen of the Sigma LOPAC (ADP-Glo Max, single point);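 note: final compound concentration 10µM in 5% DMSO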
Assay type: biochemical

COc1ccc(CC(C)NCC(O)c2ccc(O)c(NC=O)c2)cc1 (centres unmarked) [Formoterol]
Raw Signal: 54961 | Z-score: -0.04184
